Source: publication PMC6565618
No constants are given. Whether binding was seen depends on the method and setting. For part of these data: Binding seen in cells or lysates may run through a third protein. Some binding calls cover weakened binding; strength is not graded here.

How the values were obtained:
[1] = molecular target: human DJ-1 mutant M5 (L166P), with Myc and DDK (Flag) tags on the C-terminus (human) (UniProt Q99497); assay: co-IP; co-immunoprecipitation of DJ-1 (WT and mutants expressed in HEK 293T cells) and Bcl-xL (Fig. S1b); who was precipitated is not told
[2] = molecular target: human DJ-1 mutant M3 (A104T), with Myc and DDK (Flag) tags on the C-terminus (human) (UniProt Q99497); assay: as above
[3] = molecular target: human DJ-1, wild type, with Myc and DDK (Flag) tags on the C-terminus (human) (UniProt Q99497); assay: as above
[4] = molecular target: human DJ-1 mutant M4 (D149A), with Myc and DDK (Flag) tags on the C-terminus (human) (UniProt Q99497); assay: as above
[5] = molecular target: human DJ-1 mutant M5 (L166P), with Myc and DDK (Flag) tags on the C-terminus (human) (UniProt Q99497); assay: co-IP; extracts of HEK293 / HEK-293T cells expressing flag-tagged WT or mutant DJ-1; beads conjugated to anti-FLAG antibody; western blot for endogenous ATP synthase β-subunit; extraction buffer 0.1 M NaCl, 20 mM HEPES pH 7.5, 0.3% Triton X-100, 4 °C
[6] = molecular target: human DJ-1 mutant M3 (A104T), with Myc and DDK (Flag) tags on the C-terminus (human) (UniProt Q99497); assay: as above
[7] = molecular target: human DJ-1, wild type, with Myc and DDK (Flag) tags on the C-terminus (human) (UniProt Q99497); assay: as above
[8] = molecular target: human DJ-1 mutant M4 (D149A), with Myc and DDK (Flag) tags on the C-terminus (human) (UniProt Q99497); assay: as above
[9] = molecular target: human DJ-1, wild type, with Myc and DDK (Flag) tags on the C-terminus (human) (UniProt Q99497); assay: co-IP; in vitro IP: purified flag-ATP synthase β-subunit incubated with purified DJ-1, mixture immunoprecipitated with anti-DJ-1 antibody, western blot; both purified

Measured: binding

Bcl-xL (from UniProt Q07817-1 1-233)
binds: [1] | [2] | [3] | [4]

endogenous ATP synthase β-subunit (from UniProt P06576 48-529)
binds: [5] | [6] | [7] | [8]

purified recombinant FLAG-tagged ATP synthase β subunit protein (human ATP5B with Myc and DDK tags on the C-terminus) (from UniProt P06576 48-529)
binds: [9]
